The values that follow come from paper PMC5896174.

Sequences of proteins named here, by UniProt entry; tags and fusion partners are left off.
UniProt Q99684: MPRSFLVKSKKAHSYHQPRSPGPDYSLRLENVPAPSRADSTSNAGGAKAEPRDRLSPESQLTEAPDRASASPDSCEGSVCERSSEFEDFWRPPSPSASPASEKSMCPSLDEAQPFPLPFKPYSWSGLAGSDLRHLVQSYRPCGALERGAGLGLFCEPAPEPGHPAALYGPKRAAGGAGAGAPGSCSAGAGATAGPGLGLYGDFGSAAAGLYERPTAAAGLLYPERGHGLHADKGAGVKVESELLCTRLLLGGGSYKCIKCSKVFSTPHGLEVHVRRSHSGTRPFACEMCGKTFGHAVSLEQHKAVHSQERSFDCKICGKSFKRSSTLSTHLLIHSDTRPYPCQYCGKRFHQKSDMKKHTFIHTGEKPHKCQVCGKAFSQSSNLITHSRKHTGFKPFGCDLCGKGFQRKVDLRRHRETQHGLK
UniProt Q9UKL0: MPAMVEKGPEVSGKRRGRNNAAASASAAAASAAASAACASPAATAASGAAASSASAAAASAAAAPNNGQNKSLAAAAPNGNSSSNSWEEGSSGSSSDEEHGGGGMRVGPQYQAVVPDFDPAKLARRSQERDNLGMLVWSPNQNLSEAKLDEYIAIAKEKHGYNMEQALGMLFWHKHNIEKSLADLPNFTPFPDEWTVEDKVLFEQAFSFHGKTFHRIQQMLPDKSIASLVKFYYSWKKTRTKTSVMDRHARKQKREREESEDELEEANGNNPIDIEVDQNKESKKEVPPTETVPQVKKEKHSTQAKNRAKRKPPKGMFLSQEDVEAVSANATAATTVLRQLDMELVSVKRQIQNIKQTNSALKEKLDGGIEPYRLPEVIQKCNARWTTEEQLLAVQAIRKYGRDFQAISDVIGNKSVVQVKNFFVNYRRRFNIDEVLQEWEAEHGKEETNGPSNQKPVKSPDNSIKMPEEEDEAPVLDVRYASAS

The target of experiment [1] is GFI1, endogenous (human (endogenous in THP1)) (UniProt Q99684). Description: co-IP; endogenous proteins; THP1 AML cell lysates (cytoplasmic and nuclear fractions) immunoprecipitated with anti-GFI1, anti-LSD1 or anti-RCOR1, western blot; cells treated with DMSO vehicle or 250 nM OG86 for 48 hr (reversible inhibitors GSK354, PDD31777, PDD32116 also tested). For orientation: A western blot detects proteins with antibodies after separation by electrophoresis.

The target is the same in experiment [2]. Description: condition: only cells treated with 250 nM OG86 for 48 hr; co-IP; endogenous proteins; lysates of THP1 AML cells treated with 250 nM OG86 for 48 hr, immunoprecipitated with anti-GFI1, western blot.

These are yes or no findings as the source states them, for the method shown. Binding seen in cells or lysates may run through a third protein. Some binding calls cover weakened binding; strength is not graded here.

As to “RCOR1 (CoREST), endogenous (from UniProt Q9UKL0 1-485)”, the values for the binding entry in experiment [1] and in experiment [2] were “binds” and “no binding”, respectively.
